{"source": "patent US8097582B2", "about": "“Peptide derivatives useful as antimicrobial agents and for treating wounds” (Neobiotics AB, priority 2006, dated 2012)", "note": "Some entries share one result that the patent states for a list of compounds. Some compounds share one range, which may span the group rather than tell each member."}
{"system": "labial herpes outbreak", "experiment": "Topical cream on beginning labial herpes outbreak", "assay_type": "in vivo, human (a female)", "settings": "added to a softening cream, 0.2 ml solution (0.1 g/l) applied on the lip of a female; performed twice", "units": {"time until symptoms of labial herpes were gone": "h"}}
{"smiles": "CC(C)C[C@H](NC(=O)[C@H](CCCNC(=N)N)NC(=O)OCc1ccccc1)C(=O)N[C@H](CNC(=O)/C=C/c1ccccc1)C(C)C", "note": "[Compound A20, N^2-[(benzyloxy)carbonyl]-L-arginyl-N^1-[(1S)-2-methyl-1-({[(2E)-3-phenylprop-2-enoyl]amino}methyl)propyl]-L-leucinamide]", "time until symptoms of labial herpes were gone": "3 to 4"}
{"smiles": "CC(C)C[C@H](NC(=O)[C@H](CCCNC(=N)N)NC(=O)OCc1ccccc1)C(=O)N[C@H](CNC(=O)/C=C/c1ccccc1)Cc1ccccc1", "note": "[Compound A83, N^2-[(benzyloxy)carbonyl]-L-arginyl-N^1-((1S)-1-benzyl-2-([(2E)-3-phenylprop-2-enoyl]amino}ethyl)-L-leucinamide]", "time until symptoms of labial herpes were gone": "3 to 4"}
{"smiles": "CC(C)C[C@@H](CNC(=O)/C=C/c1ccccc1)NC(=O)[C@H](CC(C)C)NC(=O)[C@H](CCCNC(=N)N)NC(=O)OCc1ccccc1", "note": "[Compound A84, N^2-[(benzyloxy)carbonyl]-L-arginyl-N^1-[(1S)-3-methyl-1-({[(2E)-3-phenylprop-2-enoyl]amino}methyl)butyl]-L-leucinamide]", "time until symptoms of labial herpes were gone": "3 to 4"}
